Data: the supplement of paper PMC10849652
Some of the results follow.

Protein sequences, listed by entry. Tags and fused reporters are not part of them. Lines headed by an entry give the natural chain unless they say otherwise; changes in a name come on top.
UniProt Q8WUX9: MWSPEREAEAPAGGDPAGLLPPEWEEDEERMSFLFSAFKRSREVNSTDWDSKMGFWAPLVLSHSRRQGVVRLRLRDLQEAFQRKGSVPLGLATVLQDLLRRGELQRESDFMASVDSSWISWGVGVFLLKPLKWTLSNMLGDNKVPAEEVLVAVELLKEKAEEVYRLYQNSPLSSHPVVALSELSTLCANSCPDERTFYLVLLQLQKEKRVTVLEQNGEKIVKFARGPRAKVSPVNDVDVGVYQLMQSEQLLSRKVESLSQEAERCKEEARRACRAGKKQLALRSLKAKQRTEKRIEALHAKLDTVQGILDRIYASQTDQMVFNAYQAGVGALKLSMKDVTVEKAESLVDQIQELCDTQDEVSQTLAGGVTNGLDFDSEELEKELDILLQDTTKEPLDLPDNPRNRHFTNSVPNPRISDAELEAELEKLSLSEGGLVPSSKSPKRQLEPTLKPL
UniProt Q9Y259: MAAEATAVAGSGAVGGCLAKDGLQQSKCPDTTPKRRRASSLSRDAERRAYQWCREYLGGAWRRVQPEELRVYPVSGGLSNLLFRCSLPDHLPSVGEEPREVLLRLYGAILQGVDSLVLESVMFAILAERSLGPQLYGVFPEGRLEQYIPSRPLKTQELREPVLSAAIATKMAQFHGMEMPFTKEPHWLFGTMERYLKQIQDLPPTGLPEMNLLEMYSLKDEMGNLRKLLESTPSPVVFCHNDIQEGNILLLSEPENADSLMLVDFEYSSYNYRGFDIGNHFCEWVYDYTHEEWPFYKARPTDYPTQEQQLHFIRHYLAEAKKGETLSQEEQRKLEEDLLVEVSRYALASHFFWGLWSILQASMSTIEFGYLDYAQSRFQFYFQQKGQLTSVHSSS
UniProt Q92989: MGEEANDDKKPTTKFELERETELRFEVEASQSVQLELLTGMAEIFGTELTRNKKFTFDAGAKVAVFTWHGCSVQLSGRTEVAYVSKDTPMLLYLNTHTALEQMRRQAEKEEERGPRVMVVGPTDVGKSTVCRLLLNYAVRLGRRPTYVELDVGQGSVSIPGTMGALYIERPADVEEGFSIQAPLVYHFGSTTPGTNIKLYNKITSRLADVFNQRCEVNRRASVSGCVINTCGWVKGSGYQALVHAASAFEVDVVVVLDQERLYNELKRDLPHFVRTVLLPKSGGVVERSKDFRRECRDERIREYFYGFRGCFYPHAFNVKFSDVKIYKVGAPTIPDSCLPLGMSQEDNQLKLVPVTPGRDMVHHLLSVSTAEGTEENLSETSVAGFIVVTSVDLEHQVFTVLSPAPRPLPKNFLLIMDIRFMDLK
UniProt Q8N5K1: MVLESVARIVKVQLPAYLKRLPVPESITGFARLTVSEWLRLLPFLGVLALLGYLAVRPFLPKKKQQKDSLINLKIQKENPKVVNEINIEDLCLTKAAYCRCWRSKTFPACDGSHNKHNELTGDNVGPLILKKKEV
UniProt Q86WJ1: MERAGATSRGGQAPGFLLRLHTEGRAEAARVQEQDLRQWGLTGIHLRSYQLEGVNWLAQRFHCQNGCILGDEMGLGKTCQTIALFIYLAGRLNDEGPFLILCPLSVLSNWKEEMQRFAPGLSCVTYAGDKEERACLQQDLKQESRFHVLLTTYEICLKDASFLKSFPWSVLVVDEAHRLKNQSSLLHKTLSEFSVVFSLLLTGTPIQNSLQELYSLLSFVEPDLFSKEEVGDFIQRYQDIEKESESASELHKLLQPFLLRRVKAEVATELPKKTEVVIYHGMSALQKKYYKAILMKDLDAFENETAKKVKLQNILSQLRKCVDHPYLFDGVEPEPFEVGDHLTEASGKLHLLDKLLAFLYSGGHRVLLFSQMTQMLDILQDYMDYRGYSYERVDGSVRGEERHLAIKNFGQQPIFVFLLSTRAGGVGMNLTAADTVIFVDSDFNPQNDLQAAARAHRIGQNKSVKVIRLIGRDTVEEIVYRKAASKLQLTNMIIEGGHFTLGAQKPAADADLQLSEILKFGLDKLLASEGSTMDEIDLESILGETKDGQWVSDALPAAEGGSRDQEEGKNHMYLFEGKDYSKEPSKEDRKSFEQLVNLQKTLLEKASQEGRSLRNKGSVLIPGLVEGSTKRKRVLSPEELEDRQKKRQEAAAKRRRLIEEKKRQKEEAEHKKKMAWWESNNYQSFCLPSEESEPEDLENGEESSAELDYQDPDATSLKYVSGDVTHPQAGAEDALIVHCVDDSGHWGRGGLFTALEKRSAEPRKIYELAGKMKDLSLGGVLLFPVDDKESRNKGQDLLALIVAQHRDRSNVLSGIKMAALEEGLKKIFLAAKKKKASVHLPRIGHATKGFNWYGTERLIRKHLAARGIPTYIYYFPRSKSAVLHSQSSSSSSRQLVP
UniProt Q8NFW8: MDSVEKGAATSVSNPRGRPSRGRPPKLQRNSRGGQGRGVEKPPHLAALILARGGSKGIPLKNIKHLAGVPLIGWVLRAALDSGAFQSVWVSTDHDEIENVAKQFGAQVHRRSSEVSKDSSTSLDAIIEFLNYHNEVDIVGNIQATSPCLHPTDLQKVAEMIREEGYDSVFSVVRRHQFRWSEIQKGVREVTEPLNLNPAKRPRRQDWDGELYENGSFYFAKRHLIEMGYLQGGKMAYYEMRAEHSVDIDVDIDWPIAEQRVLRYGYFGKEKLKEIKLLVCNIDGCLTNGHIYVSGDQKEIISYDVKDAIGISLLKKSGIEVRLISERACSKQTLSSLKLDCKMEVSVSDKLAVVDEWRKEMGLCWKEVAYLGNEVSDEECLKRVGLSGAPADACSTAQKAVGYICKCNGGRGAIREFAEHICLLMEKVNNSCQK
UniProt Q14839: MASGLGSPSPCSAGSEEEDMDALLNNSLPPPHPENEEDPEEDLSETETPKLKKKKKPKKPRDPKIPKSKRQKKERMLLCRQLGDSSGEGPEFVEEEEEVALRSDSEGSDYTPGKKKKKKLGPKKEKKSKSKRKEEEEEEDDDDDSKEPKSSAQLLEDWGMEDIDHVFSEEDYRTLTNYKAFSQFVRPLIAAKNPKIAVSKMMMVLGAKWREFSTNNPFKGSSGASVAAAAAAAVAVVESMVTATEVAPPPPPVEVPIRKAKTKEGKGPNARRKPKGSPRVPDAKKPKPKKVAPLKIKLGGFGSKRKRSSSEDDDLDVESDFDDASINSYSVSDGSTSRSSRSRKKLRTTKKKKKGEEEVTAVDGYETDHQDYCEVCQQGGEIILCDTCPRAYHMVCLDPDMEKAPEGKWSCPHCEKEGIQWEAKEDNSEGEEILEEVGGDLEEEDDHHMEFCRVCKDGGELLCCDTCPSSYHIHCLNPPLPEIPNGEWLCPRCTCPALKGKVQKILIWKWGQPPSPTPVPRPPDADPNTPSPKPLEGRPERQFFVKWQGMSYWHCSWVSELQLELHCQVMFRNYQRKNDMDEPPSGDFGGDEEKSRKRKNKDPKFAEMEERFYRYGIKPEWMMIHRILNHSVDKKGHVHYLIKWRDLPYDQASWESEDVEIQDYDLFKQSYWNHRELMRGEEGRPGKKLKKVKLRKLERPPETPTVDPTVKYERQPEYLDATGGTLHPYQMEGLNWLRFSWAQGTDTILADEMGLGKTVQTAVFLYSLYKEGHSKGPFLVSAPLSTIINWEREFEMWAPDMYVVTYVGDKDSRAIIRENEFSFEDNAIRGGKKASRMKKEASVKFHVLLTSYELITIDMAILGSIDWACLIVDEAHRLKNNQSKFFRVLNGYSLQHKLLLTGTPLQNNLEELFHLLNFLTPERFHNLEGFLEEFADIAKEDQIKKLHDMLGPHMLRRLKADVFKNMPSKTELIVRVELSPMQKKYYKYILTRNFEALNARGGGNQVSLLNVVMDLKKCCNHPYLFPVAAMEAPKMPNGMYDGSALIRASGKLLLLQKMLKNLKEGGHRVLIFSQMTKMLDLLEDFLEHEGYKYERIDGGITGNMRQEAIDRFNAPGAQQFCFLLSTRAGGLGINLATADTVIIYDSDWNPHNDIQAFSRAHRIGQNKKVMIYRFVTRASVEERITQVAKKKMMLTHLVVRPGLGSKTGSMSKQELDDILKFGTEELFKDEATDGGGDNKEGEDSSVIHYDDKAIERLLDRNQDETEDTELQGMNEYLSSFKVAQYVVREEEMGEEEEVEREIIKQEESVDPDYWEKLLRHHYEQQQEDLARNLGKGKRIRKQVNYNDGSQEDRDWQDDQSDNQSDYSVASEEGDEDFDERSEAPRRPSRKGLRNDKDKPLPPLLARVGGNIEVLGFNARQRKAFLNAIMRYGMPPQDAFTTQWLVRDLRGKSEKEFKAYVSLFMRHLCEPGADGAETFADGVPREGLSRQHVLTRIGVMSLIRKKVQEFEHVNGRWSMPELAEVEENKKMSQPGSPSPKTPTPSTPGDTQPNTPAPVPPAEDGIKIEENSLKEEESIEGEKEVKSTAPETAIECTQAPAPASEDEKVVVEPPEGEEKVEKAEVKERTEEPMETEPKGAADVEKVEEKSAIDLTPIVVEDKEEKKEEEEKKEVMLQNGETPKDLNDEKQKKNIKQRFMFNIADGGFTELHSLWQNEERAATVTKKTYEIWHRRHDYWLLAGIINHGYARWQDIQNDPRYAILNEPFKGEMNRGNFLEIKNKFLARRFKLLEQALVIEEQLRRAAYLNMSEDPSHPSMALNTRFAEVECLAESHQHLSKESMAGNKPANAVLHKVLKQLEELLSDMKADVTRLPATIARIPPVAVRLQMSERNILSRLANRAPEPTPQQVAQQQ
UniProt O43633: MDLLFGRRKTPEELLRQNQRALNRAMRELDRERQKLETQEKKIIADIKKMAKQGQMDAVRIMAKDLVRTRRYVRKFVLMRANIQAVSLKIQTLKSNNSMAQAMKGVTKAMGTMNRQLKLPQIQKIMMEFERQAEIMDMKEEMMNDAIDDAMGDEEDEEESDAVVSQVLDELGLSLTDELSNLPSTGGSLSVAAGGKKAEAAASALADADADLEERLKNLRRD
UniProt Q9UQN3, whole entry, looked up: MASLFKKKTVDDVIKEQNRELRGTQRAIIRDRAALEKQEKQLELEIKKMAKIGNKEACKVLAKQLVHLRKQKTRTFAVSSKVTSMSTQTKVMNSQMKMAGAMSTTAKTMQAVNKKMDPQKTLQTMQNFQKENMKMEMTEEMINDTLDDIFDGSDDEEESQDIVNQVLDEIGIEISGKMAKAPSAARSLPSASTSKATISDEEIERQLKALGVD
UniProt Q9NY35: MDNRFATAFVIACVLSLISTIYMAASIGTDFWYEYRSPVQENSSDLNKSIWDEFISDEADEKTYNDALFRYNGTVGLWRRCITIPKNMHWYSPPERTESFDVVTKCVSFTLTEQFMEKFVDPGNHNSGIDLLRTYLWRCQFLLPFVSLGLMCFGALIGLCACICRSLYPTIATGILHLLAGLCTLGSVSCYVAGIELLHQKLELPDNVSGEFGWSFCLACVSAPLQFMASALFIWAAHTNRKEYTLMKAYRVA
UniProt Q13112, whole entry, looked up: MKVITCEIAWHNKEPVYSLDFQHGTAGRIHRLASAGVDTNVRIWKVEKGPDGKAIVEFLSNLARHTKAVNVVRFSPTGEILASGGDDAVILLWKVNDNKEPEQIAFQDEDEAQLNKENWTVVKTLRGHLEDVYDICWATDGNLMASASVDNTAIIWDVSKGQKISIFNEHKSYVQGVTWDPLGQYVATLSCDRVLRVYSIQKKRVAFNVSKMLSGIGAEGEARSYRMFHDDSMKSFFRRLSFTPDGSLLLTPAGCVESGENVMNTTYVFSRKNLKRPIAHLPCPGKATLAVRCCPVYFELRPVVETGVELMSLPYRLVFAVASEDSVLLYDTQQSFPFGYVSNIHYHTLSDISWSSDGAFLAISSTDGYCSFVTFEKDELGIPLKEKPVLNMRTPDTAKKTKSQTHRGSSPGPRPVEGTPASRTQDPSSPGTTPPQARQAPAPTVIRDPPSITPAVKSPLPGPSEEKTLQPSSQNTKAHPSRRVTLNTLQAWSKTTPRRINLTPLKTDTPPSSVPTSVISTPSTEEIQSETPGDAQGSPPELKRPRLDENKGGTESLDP

Tests used:
Test in all cases: log2 fold change, soluble protein after heating vs DMSO (PISA); higher = thermal stabilisation; K562 lysate, 10 uM; active = over 0.2 and 3.5 SD of the protein, either way, in both replicates (recomputed)
vemurafenib = compound: CCCS(=O)(=O)Nc1ccc(F)c(C(=O)c2c[nH]c3ncc(-c4ccc(Cl)cc4)cc23)c1F [vemurafenib]
Method in brief: (§1)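 A 30 min treatment with 10 μM compound was applied to crude K562 extract at 1 mg/mL protein in PBS pH 7.4 with 1 mM MgCl2. Heating for 3 min spanned 48°C-58°C, after which aliquots were pooled, adjusted to 0.5% NP-40 at 4°C and spun at 21,000xg for 90 min. TMTpro 16plex LC-MS/MS of the supernatant, with channel sums equalised, gave values recorded as log-two fold change in thermal stability against solvent controls, from duplicates.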

[1] = compound: CCCS(=O)(=O)Nc1ccc(F)c(C(=O)c2c[nH]c3ncc(Cl)cc23)c1F
Method in brief: as §1

barasertib = compound: CCN(CCCOc1ccc2c(Nc3cc(CC(=O)Nc4cccc(F)c4)[nH]n3)ncnc2c1)CCOP(=O)(O)O [barasertib]
Method in brief: as §1

[2] = compound: CC[C@@H]1C(=O)N(C)c2cnc(Nc3ccc(C(=O)NC4CCN(C)CC4)cc3OC)nc2N1C1CCCC1
Method in brief: as §1

volasertib = compound: CC[C@@H]1C(=O)N(C)c2cnc(Nc3ccc(C(=O)N[C@H]4CC[C@H](N5CCN(CC6CC6)CC5)CC4)cc3OC)nc2N1C(C)C [volasertib]
Method in brief: as §1

[3] = compound: CCn1c(C(=O)N(C2CC2)C2CC2)cc2c3c(ncn3C)c(Nc3cc(C)n(C)n3)nc21
Method in brief: as §1

[4] = compound: CCn1cc(-c2ccnc3[nH]c(-c4cccc(CN(C)C)c4)cc23)c(-c2ccc(NC(=O)N(C)C)cc2)n1
Method in brief: as §1

[5] = compound: CN1CCC(CNc2ccc3ncc(-c4cccc(OC(F)(F)F)c4)n3n2)CC1
Method in brief: as §1

saracatinib = compound: CN1CCN(CCOc2cc(OC3CCOCC3)c3c(Nc4c(Cl)ccc5c4OCO5)ncnc3c2)CC1 [saracatinib]
Method in brief: as §1

sotrastaurin = compound: CN1CCN(c2nc(C3=C(c4c[nH]c5ccccc45)C(=O)NC3=O)c3ccccc3n2)CC1 [sotrastaurin]
Method in brief: as §1

alvocidib = compound: CN1CC[C@H](c2c(O)cc(O)c3c(=O)cc(-c4ccccc4Cl)oc23)[C@H](O)C1 [alvocidib]
Method in brief: as §1

Tubastatin A = compound: CN1CCc2c(c3ccccc3n2Cc2ccc(C(=O)NO)cc2)C1 [Tubastatin A]
Method in brief: as §1

[6] = compound: CNC(=O)C1=CC=CC=C1NC2=NC(=NC=C2Cl)NC3=C(C=C(C=C3)N4CCOCC4)OC
Method in brief: as §1

defactinib = compound: CNC(=O)c1ccc(Nc2ncc(C(F)(F)F)c(NCc3nccnc3N(C)S(C)(=O)=O)n2)cc1 [defactinib]
Method in brief: as §1

[7] = compound: CNc1nc(-c2ccc3c(N)n[nH]c3c2)cc(N2C[C@@H](C(=O)NC3CCCCC3)CC[C@H]2C)n1
Method in brief: as §1

encorafenib = compound: COC(=O)N[C@@H](C)CNc1nccc(-c2cn(C(C)C)nc2-c2cc(Cl)cc(NS(C)(=O)=O)c2F)n1 [encorafenib]
Method in brief: as §1

[8] = compound: COC(=O)[C@H](CCSC)NC(=O)C1=C(C=C(C=C1)NC[C@H](CS)N)C2=CC=CC=C2
Method in brief: as §1

alisertib = compound: COc1cc(Nc2ncc3c(n2)-c2ccc(Cl)cc2C(c2c(F)cccc2OC)=NC3)ccc1C(=O)O [alisertib]
Method in brief: as §1

[9] = compound: COc1cc2nc(-c3cc(F)ccc3O)nc(N[C@@H]3CNC[C@H]3C(C)(C)O)c2cc1OC
Method in brief: as §1

gefitinib = compound: COc1cc2ncnc(Nc3ccc(F)c(Cl)c3)c2cc1OCCCN1CCOCC1 [gefitinib]
Method in brief: as §1

Target	log2 fold change (vemurafenib)	log2 fold change [1]	log2 fold change (barasertib)	log2 fold change [2]	log2 fold change (volasertib)	log2 fold change [3]	log2 fold change [4]	log2 fold change [5]	log2 fold change (saracatinib)	log2 fold change (sotrastaurin)	log2 fold change (alvocidib)	log2 fold change (Tubastatin A)	log2 fold change [6]	log2 fold change (defactinib)	log2 fold change [7]	log2 fold change (encorafenib)	log2 fold change [8]	log2 fold change (alisertib)	log2 fold change [9]	log2 fold change (gefitinib)
CHMP7 (UniProt Q8WUX9)	inactive: -0.036	inactive: 0.018	inactive: 0.029	inactive: 0.109	inactive: 0.002	inactive: -0.001	inactive: -0.11	inactive: -0.012	inactive: 0.003	inactive: 0.061	inactive: -0.012	inactive: 0.038	inactive: 0.025	inactive: 0.032	inactive: -0.001	inactive: 0.105	inactive: -0.009	inactive: 0.023	inactive: -0.01	inactive: -0.013
CHKB (UniProt Q9Y259)	inactive: -0.068	inactive: 0.014	inactive: -0.029	inactive: 0.201	inactive: 0.018	inactive: 0.068	inactive: 0.019	inactive: 0.047	inactive: 0.06	inactive: 0.047	inactive: 0.009	inactive: -0.049	inactive: 0.047	inactive: 0.013	inactive: 0.075	inactive: -0.046	inactive: -0.006	inactive: -0.018	inactive: -0.016	inactive: 0.087
CLPB isoform 2 (UniProt Q9H078)	inactive: 0.011	inactive: 0.023	inactive: 0.026	inactive: 0.007	inactive: -0.042	inactive: 0.044	inactive: 0.078	inactive: -0.045	inactive: 0.004	inactive: -0.012	inactive: 0.065	inactive: -0.075	inactive: 0.031	inactive: 0.086	inactive: -0.049	inactive: 0.025	inactive: -0.053	inactive: 0.001	inactive: -0.036	inactive: 0.034
CIP2A (UniProt Q8TCG1)	inactive: 0.036	inactive: 0.019	inactive: 0.153	inactive: 0.001	inactive: -0.086	inactive: 0.037	inactive: -0.07	inactive: -0.075	inactive: 0.009	inactive: 0.014	inactive: 0.009	active: -0.294	inactive: -0.015	inactive: 0.003	inactive: -0.074	inactive: 0.008	inactive: 0.053	inactive: -0.004	inactive: -0.014	inactive: -0.018
CLP1 (UniProt Q92989)	inactive: -0.035	inactive: 0	inactive: 0.03	inactive: -0.045	inactive: -0.05	inactive: 0.015	inactive: -0.13	inactive: 0.096	inactive: 0.115	inactive: 0.036	inactive: -0.103	inactive: -0.179	inactive: 0.004	inactive: 0.071	inactive: -0.037	inactive: 0.02	inactive: 0.023	inactive: -0.002	inactive: 0.031	inactive: 0.033
CISD2 (UniProt Q8N5K1)	inactive: 0.046	inactive: 0.017	inactive: -0.008	inactive: 0.094	inactive: 0.025	inactive: -0.032	inactive: -0.022	inactive: 0.063	inactive: -0.005	inactive: -0.022	inactive: -0.029	inactive: 0.065	inactive: -0.006	inactive: 0.02	inactive: 0.05	inactive: 0.007	inactive: -0.095	inactive: -0.046	inactive: 0.059	inactive: 0.051
CHD1L (UniProt Q86WJ1)	inactive: 0.033	inactive: 0.011	inactive: 0.062	inactive: -0.029	inactive: -0.09	inactive: 0.024	inactive: -0.053	inactive: -0.054	inactive: 0	inactive: -0.001	inactive: 0.012	inactive: -0.16	inactive: -0.003	inactive: -0.001	inactive: -0.025	inactive: 0.013	inactive: 0.114	inactive: 0.018	inactive: -0.002	inactive: 0.006
CMAS (UniProt Q8NFW8)	inactive: 0.005	inactive: 0.025	inactive: 0.023	inactive: 0.019	inactive: 0.008	inactive: -0.018	inactive: -0.106	inactive: 0.016	inactive: 0.012	inactive: 0.001	inactive: 0.043	inactive: 0.012	inactive: 0.018	inactive: 0	inactive: 0.013	inactive: -0.015	inactive: -0.018	inactive: 0.009	inactive: 0.007	inactive: -0.018
CHD4 isoform 2 (UniProt Q14839)	inactive: 0	inactive: 0.002	inactive: 0.028	inactive: -0.003	inactive: -0.002	inactive: 0.022	inactive: -0.054	inactive: -0.017	inactive: 0.002	inactive: 0.02	inactive: -0.004	inactive: -0.069	inactive: -0.014	inactive: 0.007	inactive: 0.017	inactive: 0.013	inactive: 0.087	inactive: 0.016	inactive: -0.007	inactive: -0.014
CHMP2A (UniProt O43633)	inactive: -0.006	inactive: -0.01	inactive: -0.103	inactive: 0.013	inactive: 0.049	inactive: -0.006	inactive: -0.111	inactive: 0.023	inactive: -0.011	inactive: -0.023	inactive: -0.043	inactive: 0.017	inactive: 0.042	inactive: 0.009	inactive: -0.001	inactive: 0.026	inactive: -0.031	inactive: 0.017	inactive: -0.033	inactive: 0.006
CLIC1 (UniProt O00299)	inactive: -0.029	inactive: 0.004	inactive: -0.029	inactive: 0.009	inactive: 0.009	inactive: -0.005	inactive: -0.011	inactive: 0.015	inactive: -0.019	inactive: 0.015	inactive: 0.004	inactive: 0.008	inactive: 0.018	inactive: -0.003	inactive: 0.011	inactive: -0.026	inactive: 0.036	inactive: -0.002	inactive: -0.005	inactive: -0.006
CLSPN (UniProt Q9HAW4)	inactive: 0.033	inactive: -0.003	inactive: -0.031	inactive: 0.074	inactive: 0.029	inactive: -0.047	inactive: -0.068	inactive: 0.022	inactive: 0.001	inactive: -0.004	inactive: -0.033	inactive: -0.037	inactive: 0.041	inactive: -0.012	inactive: 0.115	inactive: 0.09	inactive: -0.11	inactive: 0.019	inactive: -0.013	inactive: 0.045
CHMP2B (UniProt Q9UQN3)	inactive: -0.016	inactive: 0	inactive: -0.014	inactive: 0.035	inactive: -0.001	inactive: -0.031	inactive: 0.034	inactive: -0.025	inactive: 0.022	inactive: 0.024	inactive: 0.044	inactive: 0.028	inactive: 0.014	inactive: 0.049	inactive: -0.007	inactive: 0.051	inactive: -0.05	inactive: 0.004	inactive: -0.028	inactive: -0.058
CLDND1 (UniProt Q9NY35)	inactive: -0.044	inactive: 0.012	inactive: 0.001	inactive: 0.053	inactive: -0.022	inactive: 0.097	inactive: -0.131	inactive: 0.111	inactive: 0.01	inactive: 0.086	inactive: -0.03	inactive: -0.03	inactive: -0.052	inactive: 0.015	inactive: -0.026	inactive: -0.062	inactive: -0.05	inactive: 0.018	inactive: 0.054	inactive: -0.024
CHAF1B (UniProt Q13112)	inactive: 0.005	inactive: -0.015	inactive: 0.013	inactive: 0.016	inactive: 0.02	inactive: -0.025	inactive: -0.048	inactive: 0.033	inactive: 0.007	inactive: -0.014	inactive: -0.023	inactive: 0.017	inactive: 0.007	inactive: -0.06	inactive: -0.003	inactive: 0.018	inactive: -0.097	inactive: 0.048	inactive: 0.003	inactive: 0.029
CLIP1 isoform 1 (UniProt P30622)	inactive: -0.011	inactive: 0.016	inactive: -0.011	inactive: 0.034	inactive: 0.034	inactive: -0.03	inactive: -0.055	inactive: 0.02	inactive: 0.021	inactive: 0.008	inactive: -0.005	inactive: 0.038	inactive: 0.014	inactive: -0.006	inactive: -0.008	inactive: 0.003	inactive: -0.03	inactive: -0.016	inactive: 0.014	inactive: 0.001
